PubChem BioAssay AID743454, Peter MacCallum Cancer Centre – 2014
Test: 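Genes whose loss kills vorinostat-resistant colon cancer cells under vorinostat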 (primary screen). System: human HCT116-VR colon cancer cells, selected for vorinostat resistance. Reagent: siRNA pool against human genes, 40 nM siRNA pool. Time to read-out: vorinostat for 24 h, read-out about 72 h after transfection. Conditions: vorinostat at 2.5 µM final. Measurement: 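Two measures, CellTiter-Fluor viability and luminescent caspase 3/7 activity, each as fold change against same-plate mock wells, mean of duplicates, then screen-wide robust z-score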. Reading the numbers: viability robust z-score: higher = more viable cells than screen typical; caspase robust z-score: higher = more caspase 3/7 activity than screen typical. Active means: 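a knock-down is a hit when classed RV1 or RV2 for lowered viability, or CA1 or CA2 for caspase activation; those lethal without drug were dropped; hits were retested singly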.
Shown is an unselected part of about 18,000 reagents tested. Over the whole deposit, 450 (2.5%) got an active call. 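Single biological run; no consistent viability z cut-off exists, so the class columns, not z-scores, define the calls.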 Unmarked entries are inactive.

SLC51A: viability hit class = no change; caspase hit class = no change; viability robust z-score = 0.4; caspase robust z-score = 1.99
PNRC1 (proline rich nuclear receptor coactivator 1): viability hit class = no change; caspase hit class = no change; viability robust z-score = 0.33; caspase robust z-score = 2.84
BIN1 (bridging integrator 1): viability hit class = no change; caspase hit class = no change; viability robust z-score = -4.3; caspase robust z-score = -0.42
ECHS1 (enoyl-CoA hydratase, short chain 1): viability hit class = no change; caspase hit class = no change; viability robust z-score = -1.05; caspase robust z-score = 3.78
ATXN3 (ataxin 3): viability hit class = no change; caspase hit class = no change; viability robust z-score = 0.38; caspase robust z-score = 0.11
PCGF1 (polycomb group ring finger 1): viability hit class = no change; caspase hit class = no change; viability robust z-score = -0.37; caspase robust z-score = 1.46
PPP3CA (protein phosphatase 3 catalytic subunit alpha): viability hit class = no change; caspase hit class = no change; viability robust z-score = -0.74; caspase robust z-score = -1.31
KCTD12 (potassium channel tetramerization domain containing 12): viability hit class = no change; caspase hit class = no change; viability robust z-score = -3.15; caspase robust z-score = 1.31
ANKRD30A (ankyrin repeat domain 30A): viability hit class = no change; caspase hit class = no change; viability robust z-score = -2.41; caspase robust z-score = 2.54

Next part, starting with the last 2 of the part before.
KCTD12 (potassium channel tetramerization domain containing 12): viability hit class = no change; caspase hit class = no change; viability robust z-score = -3.15; caspase robust z-score = 1.31
ANKRD30A (ankyrin repeat domain 30A): viability hit class = no change; caspase hit class = no change; viability robust z-score = -2.41; caspase robust z-score = 2.54
PARP11 (poly(ADP-ribose) polymerase family member 11): viability hit class = no change; caspase hit class = no change; viability robust z-score = 0.15; caspase robust z-score = -0.65
BANF1 (barrier to autointegration nuclear assembly factor 1): viability hit class = no change; caspase hit class = no change; viability robust z-score = 0.4; caspase robust z-score = 0.77
CAPZA2 (capping actin protein of muscle Z-line subunit alpha 2): viability hit class = no change; caspase hit class = no change; viability robust z-score = 0.6; caspase robust z-score = -0.08
DUSP21 (dual specificity phosphatase 21): viability hit class = no change; caspase hit class = no change; viability robust z-score = 0.16; caspase robust z-score = -0.06
TKTL1 (transketolase like 1): viability hit class = no change; caspase hit class = no change; viability robust z-score = -0.97; caspase robust z-score = 0.97
